From paper PMC9979126
Results are given in words; binding and its absence hold for the method and conditions named. For some of these results: Binding seen in cells or lysates may run through a third protein. Some entries that bind do so weakly or less than the wild type. For some of these results: Sequences can lack the tags named with a protein. Each block holds one binder with its values, some of them ahead of it.

What was measured:
[1] = molecular target: T1, HA-Spi2a (serine protease inhibitor 2A, Serpina3g) (mouse) (UniProt Q5I2A0); test: co-IP; HA antibody IP from BMDMs transduced with control or HA-Spi2a-lentivirus; western blot
T1 sequence: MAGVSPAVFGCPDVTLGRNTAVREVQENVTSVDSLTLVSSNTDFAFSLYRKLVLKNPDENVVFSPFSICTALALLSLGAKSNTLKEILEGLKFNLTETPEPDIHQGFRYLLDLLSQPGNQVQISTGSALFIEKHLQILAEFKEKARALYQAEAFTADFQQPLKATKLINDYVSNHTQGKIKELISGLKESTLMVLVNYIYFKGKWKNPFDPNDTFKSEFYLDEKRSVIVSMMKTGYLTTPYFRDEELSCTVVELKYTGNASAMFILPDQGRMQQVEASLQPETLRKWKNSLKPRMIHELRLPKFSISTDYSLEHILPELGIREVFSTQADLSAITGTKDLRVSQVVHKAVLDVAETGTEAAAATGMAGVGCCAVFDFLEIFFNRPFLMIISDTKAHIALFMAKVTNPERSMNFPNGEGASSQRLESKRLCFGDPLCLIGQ

[2] = molecular target: T1, HA-Spi2a (serine protease inhibitor 2A, Serpina3g) (mouse); test: co-IP; HA or His antibody IP from BMDMs (macrophages) infected with HA-Spi2a- and His-Ikkβ-lentivirus; western blot
[3] = molecular target: T2, Recombinant Spi2a (mouse) (UniProt Q5I2A0); test: co-IP; in vitro: recombinant Spi2a and IKKβ mixed, incubated with Spi2a or IKKβ antibody for 4 h, then protein A/G beads for 2 h at 4 °C; western blot; both purified
T2 sequence: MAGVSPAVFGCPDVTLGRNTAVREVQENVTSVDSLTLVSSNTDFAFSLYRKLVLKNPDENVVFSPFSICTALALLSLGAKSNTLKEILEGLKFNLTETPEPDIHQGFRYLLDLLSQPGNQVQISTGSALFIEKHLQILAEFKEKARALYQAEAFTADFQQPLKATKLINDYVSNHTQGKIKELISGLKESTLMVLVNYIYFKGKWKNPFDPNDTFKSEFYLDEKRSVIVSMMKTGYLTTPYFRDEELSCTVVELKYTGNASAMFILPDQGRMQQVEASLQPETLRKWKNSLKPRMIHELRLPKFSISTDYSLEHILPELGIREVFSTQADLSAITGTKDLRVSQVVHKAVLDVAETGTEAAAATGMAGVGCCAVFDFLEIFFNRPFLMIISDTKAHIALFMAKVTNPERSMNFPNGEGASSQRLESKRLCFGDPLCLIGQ

[4] = molecular target: T3, SERPINA3 (human orthologue of Spi2a) (human) (UniProt P01011); test: co-IP; human macrophages; told only as 'like the data in BMDMs' (Fig. S10j not shown)
T3 sequence: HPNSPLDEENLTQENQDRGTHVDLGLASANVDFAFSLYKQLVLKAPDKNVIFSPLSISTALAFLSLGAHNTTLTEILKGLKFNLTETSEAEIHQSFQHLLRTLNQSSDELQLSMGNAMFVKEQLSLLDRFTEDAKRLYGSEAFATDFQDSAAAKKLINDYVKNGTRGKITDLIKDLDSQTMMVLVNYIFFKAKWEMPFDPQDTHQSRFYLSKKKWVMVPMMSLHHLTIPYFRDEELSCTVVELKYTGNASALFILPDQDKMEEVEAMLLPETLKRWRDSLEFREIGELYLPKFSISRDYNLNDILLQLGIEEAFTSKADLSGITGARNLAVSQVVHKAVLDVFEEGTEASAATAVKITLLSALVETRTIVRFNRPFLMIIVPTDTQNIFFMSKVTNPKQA

B1: IKKβ (IkappaB kinase β), endogenous in BMDMs (protein, UniProt O88351 1-757)
chain: MSWSPSLPTQTCGAWEMKERLGTGGFGNVIRWHNQATGEQIAIKQCRQELSPKNRNRWCLEIQIMRRLNHPNVVAARDVPEGMQNLAPNDLPLLAMEYCQGGDLRRYLNQFENCCGLREGAVLTLLSDIASALRYLHENRIIHRDLKPENIVLQQGEKRLIHKIIDLGYAKELDQGSLCTSFVGTLQYLAPELLEQQKYTVTVDYWSFGTLAFECITGFRPFLPNWQPVQWHSKVRQKSEVDIVVSEDLNGAVKFSSSLPFPNNLNSVLAERLEKWLQLMLMWHPRQRGTDPQYGPNGCFRALDDILNLKLVHVLNMVTGTVHTYPVTEDESLQSLKTRIQENTGILETDQELLQKAGLVLLPDKPATQCISDSKTNEGLTLDMDLVFLLDNSKINYETQITPRPPPESVSCILQEPKRNLSFFQLRKVWGQVWHSIQTLKEDCNRLQQGQRAAMMSLLRNNSCLSKMKNAMASTAQQLKAKLDFFKTSIQIDLEKYKEQTEFGITSDKLLLAWREMEQAVEQCGRENDVKHLVERMMALQTDIVDLQRSPMGRKQGGTLDDLEEQARELYRKLREKPRDQRTEGDSQEMVRLLLQAIQSFEKKVRVIYTQLSKTVVCKQKALELLPKVEEVVSLMNEDERTVVRLQEKRQKELWNLLKIACSKVRGPVSGSPDSMNVSRLSHPGQLMSQPSSACDSLPESDKKSEELVAEAHALCSRLESALQDTVKEQDRSFTTLDWSWLQMEDEERCSLEQACD
binding [1]: binds

B2: His-IKKβ (mouse) (protein, UniProt O88351 1-757)
chain: MSWSPSLPTQTCGAWEMKERLGTGGFGNVIRWHNQATGEQIAIKQCRQELSPKNRNRWCLEIQIMRRLNHPNVVAARDVPEGMQNLAPNDLPLLAMEYCQGGDLRRYLNQFENCCGLREGAVLTLLSDIASALRYLHENRIIHRDLKPENIVLQQGEKRLIHKIIDLGYAKELDQGSLCTSFVGTLQYLAPELLEQQKYTVTVDYWSFGTLAFECITGFRPFLPNWQPVQWHSKVRQKSEVDIVVSEDLNGAVKFSSSLPFPNNLNSVLAERLEKWLQLMLMWHPRQRGTDPQYGPNGCFRALDDILNLKLVHVLNMVTGTVHTYPVTEDESLQSLKTRIQENTGILETDQELLQKAGLVLLPDKPATQCISDSKTNEGLTLDMDLVFLLDNSKINYETQITPRPPPESVSCILQEPKRNLSFFQLRKVWGQVWHSIQTLKEDCNRLQQGQRAAMMSLLRNNSCLSKMKNAMASTAQQLKAKLDFFKTSIQIDLEKYKEQTEFGITSDKLLLAWREMEQAVEQCGRENDVKHLVERMMALQTDIVDLQRSPMGRKQGGTLDDLEEQARELYRKLREKPRDQRTEGDSQEMVRLLLQAIQSFEKKVRVIYTQLSKTVVCKQKALELLPKVEEVVSLMNEDERTVVRLQEKRQKELWNLLKIACSKVRGPVSGSPDSMNVSRLSHPGQLMSQPSSACDSLPESDKKSEELVAEAHALCSRLESALQDTVKEQDRSFTTLDWSWLQMEDEERCSLEQACD
binding [2]: binds

Other lines, results leading:

binding [3]: binds
B3: Recombinant IKKβ (protein, UniProt O88351 1-757)
chain: MSWSPSLPTQTCGAWEMKERLGTGGFGNVIRWHNQATGEQIAIKQCRQELSPKNRNRWCLEIQIMRRLNHPNVVAARDVPEGMQNLAPNDLPLLAMEYCQGGDLRRYLNQFENCCGLREGAVLTLLSDIASALRYLHENRIIHRDLKPENIVLQQGEKRLIHKIIDLGYAKELDQGSLCTSFVGTLQYLAPELLEQQKYTVTVDYWSFGTLAFECITGFRPFLPNWQPVQWHSKVRQKSEVDIVVSEDLNGAVKFSSSLPFPNNLNSVLAERLEKWLQLMLMWHPRQRGTDPQYGPNGCFRALDDILNLKLVHVLNMVTGTVHTYPVTEDESLQSLKTRIQENTGILETDQELLQKAGLVLLPDKPATQCISDSKTNEGLTLDMDLVFLLDNSKINYETQITPRPPPESVSCILQEPKRNLSFFQLRKVWGQVWHSIQTLKEDCNRLQQGQRAAMMSLLRNNSCLSKMKNAMASTAQQLKAKLDFFKTSIQIDLEKYKEQTEFGITSDKLLLAWREMEQAVEQCGRENDVKHLVERMMALQTDIVDLQRSPMGRKQGGTLDDLEEQARELYRKLREKPRDQRTEGDSQEMVRLLLQAIQSFEKKVRVIYTQLSKTVVCKQKALELLPKVEEVVSLMNEDERTVVRLQEKRQKELWNLLKIACSKVRGPVSGSPDSMNVSRLSHPGQLMSQPSSACDSLPESDKKSEELVAEAHALCSRLESALQDTVKEQDRSFTTLDWSWLQMEDEERCSLEQACD

binding [4]: binds
B4: IKKβ (human) (protein, UniProt O14920-1 1-756)
chain: MSWSPSLTTQTCGAWEMKERLGTGGFGNVIRWHNQETGEQIAIKQCRQELSPRNRERWCLEIQIMRRLTHPNVVAARDVPEGMQNLAPNDLPLLAMEYCQGGDLRKYLNQFENCCGLREGAILTLLSDIASALRYLHENRIIHRDLKPENIVLQQGEQRLIHKIIDLGYAKELDQGSLCTSFVGTLQYLAPELLEQQKYTVTVDYWSFGTLAFECITGFRPFLPNWQPVQWHSKVRQKSEVDIVVSEDLNGTVKFSSSLPYPNNLNSVLAERLEKWLQLMLMWHPRQRGTDPTYGPNGCFKALDDILNLKLVHILNMVTGTIHTYPVTEDESLQSLKARIQQDTGIPEEDQELLQEAGLALIPDKPATQCISDGKLNEGHTLDMDLVFLFDNSKITYETQISPRPQPESVSCILQEPKRNLAFFQLRKVWGQVWHSIQTLKEDCNRLQQGQRAAMMNLLRNNSCLSKMKNSMASMSQQLKAKLDFFKTSIQIDLEKYSEQTEFGITSDKLLLAWREMEQAVELCGRENEVKLLVERMMALQTDIVDLQRSPMGRKQGGTLDDLEEQARELYRRLREKPRDQRTEGDSQEMVRLLLQAIQSFEKKVRVIYTQLSKTVVCKQKALELLPKVEEVVSLMNEDEKTVVRLQEKRQKELWNLLKIACSKVRGPVSGSPDSMNASRLSQPGQLMSQPSTASNSLPEPAKKSEELVAEAHNLCTLLENAIQDTVREQDQSFTALDWSWLQTEEEEHSCLEQAS
